Source: PubChem BioAssay AID686938 (Drosophila RNAi Screening Center, 2013)

Screen: 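Fly genes required for calcium entry once internal stores are emptied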 (primary screen)
Cells: Drosophila S2R+ cells
Reagents: long dsRNA against Drosophila genes, about 0.25 µg dsRNA per well, roughly 10,000 cells
Timing: 5 days of knock-down before the calcium assay
Challenge: thapsigargin (SERCA pump blocker) to empty calcium stores; entry signal taken 4 min after adding it
Measurement: 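Duplicate raw fluo-4 intensities per well from a plate reader, at rest and four minutes after thapsigargin emptied calcium stores; entry-to-rest ratio filled for only some wells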
Direction: calcium entry signal: higher = stronger calcium signal after store depletion; entry to resting ratio: higher = more calcium entry relative to resting level; resting calcium signal: higher = higher resting calcium signal
Units: calcium entry signal in fluorescence units; resting calcium signal in fluorescence units
Call rule: 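Hit if the duplicate-averaged plate z-score for entry over resting signal is under −3; wells with weak total dye signal (Fmax z < −2) or more than 5 off-targets removed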
Meaning of the calls: active = strongly reduced calcium entry; inactive = no strong reduction
The screen tested about 23,000 reagents; below is an unselected part of those that have a named target and a result. Over the whole deposit, 75 (0.33%) are marked active. 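Raw plate signals without normalisation; calls rest on plate z-scores that were not deposited; ratio present for only 364 wells.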 Not stated in the record: the dose of the treatment.

CG15012 [DRSC08465] gave calcium entry signal, replicate 1 = 5.13e7; calcium entry signal, replicate 2 = 3.72e7; resting calcium signal, replicate 1 = 3.46e7; resting calcium signal, replicate 2 = 1.69e7; inactive. CG33229 [DRSC07863] gave calcium entry signal, replicate 1 = 3.94e7; calcium entry signal, replicate 2 = 2.96e7; resting calcium signal, replicate 1 = 1.71e7; resting calcium signal, replicate 2 = 1.25e7; inactive. For Sema2b [DRSC05609] the deposit lists calcium entry signal, replicate 1 = 2.52e7; calcium entry signal, replicate 2 = 3.22e7; resting calcium signal, replicate 1 = 1.19e7; resting calcium signal, replicate 2 = 1.57e7; inactive. Silencing of Sema2b [DRSC05611] gave: calcium entry signal, replicate 1 = 2.26e7; calcium entry signal, replicate 2 = 3.07e7; resting calcium signal, replicate 1 = 1.10e7; resting calcium signal, replicate 2 = 1.52e7; inactive. For Sema2b [DRSC06867] the deposit lists calcium entry signal, replicate 1 = 5.20e7; calcium entry signal, replicate 2 = 6.33e7; resting calcium signal, replicate 1 = 2.21e7; resting calcium signal, replicate 2 = 2.83e7; inactive. For CG12945 [DRSC14573], the entry reads calcium entry signal, replicate 1 = 2.97e7; calcium entry signal, replicate 2 = 3.14e7; resting calcium signal, replicate 1 = 1.75e7; resting calcium signal, replicate 2 = 1.76e7; inactive.

Against CG5281 [DRSC15761] the deposit lists calcium entry signal, replicate 1 = 3.33e7; calcium entry signal, replicate 2 = 3.53e7; resting calcium signal, replicate 1 = 1.64e7; resting calcium signal, replicate 2 = 1.84e7; inactive. CG13029 [DRSC09909] scored calcium entry signal, replicate 1 = 5.10e7; calcium entry signal, replicate 2 = 7.72e7; resting calcium signal, replicate 1 = 2.45e7; resting calcium signal, replicate 2 = 2.79e7; inactive. Depletion of HP1e [DRSC16379] came out at: calcium entry signal, replicate 1 = 2.49e7; calcium entry signal, replicate 2 = 2.85e7; resting calcium signal, replicate 1 = 1.29e7; resting calcium signal, replicate 2 = 1.53e7; inactive. Knock-down of CG3734 [DRSC15509] came out at: calcium entry signal, replicate 1 = 4.00e7; calcium entry signal, replicate 2 = 4.21e7; resting calcium signal, replicate 1 = 3.97e7; resting calcium signal, replicate 2 = 1.79e7; inactive. With knock-down of CG11231 (retired record) [DRSC17207], the record shows calcium entry signal, replicate 1 = 5.48e7; calcium entry signal, replicate 2 = 4.78e7; entry to resting ratio 2.1; resting calcium signal, replicate 1 = 2.58e7; resting calcium signal, replicate 2 = 2.18e7; inactive. Silencing of CG15765 [DRSC18071] resulted in: calcium entry signal, replicate 1 = 3.15e7; calcium entry signal, replicate 2 = 3.41e7; resting calcium signal, replicate 1 = 1.51e7; resting calcium signal, replicate 2 = 1.80e7; inactive.

CG15765 [DRSC23026] gave calcium entry signal, replicate 1 = 3.92e7; calcium entry signal, replicate 2 = 3.55e7; resting calcium signal, replicate 1 = 1.89e7; resting calcium signal, replicate 2 = 1.70e7; inactive. heca [DRSC16964] gave calcium entry signal, replicate 1 = 3.24e7; calcium entry signal, replicate 2 = 3.79e7; resting calcium signal, replicate 1 = 1.87e7; resting calcium signal, replicate 2 = 2.21e7; inactive. heca [DRSC22990] scored calcium entry signal, replicate 1 = 3.94e7; calcium entry signal, replicate 2 = 2.89e7; resting calcium signal, replicate 1 = 2.07e7; resting calcium signal, replicate 2 = 1.37e7; inactive. With knock-down of CG3045 [DRSC04331], the record shows calcium entry signal, replicate 1 = 3.65e7; resting calcium signal, replicate 1 = 1.80e7; inactive. Knock-down of p [DRSC16560] gave: calcium entry signal, replicate 1 = 4.49e7; calcium entry signal, replicate 2 = 2.61e7; resting calcium signal, replicate 1 = 2.36e7; resting calcium signal, replicate 2 = 1.34e7; inactive. conu [DRSC07810] showed calcium entry signal, replicate 1 = 3.58e7; calcium entry signal, replicate 2 = 2.57e7; resting calcium signal, replicate 1 = 1.74e7; resting calcium signal, replicate 2 = 1.09e7; inactive.

Depletion of CG16964 [DRSC02546] gave: calcium entry signal, replicate 1 = 3.41e7; calcium entry signal, replicate 2 = 1.91e7; resting calcium signal, replicate 1 = 1.61e7; resting calcium signal, replicate 2 = 9.28e6; inactive. Knock-down of Toll-4 [DRSC03458] came out at: calcium entry signal, replicate 1 = 2.55e7; calcium entry signal, replicate 2 = 4.50e7; resting calcium signal, replicate 1 = 1.26e7; resting calcium signal, replicate 2 = 1.81e7; inactive. ck [DRSC03509] gave calcium entry signal, replicate 1 = 5.39e7; resting calcium signal, replicate 1 = 2.57e7; inactive.

An excerpt taken from the entries so far, as a working copy:
CG15765 [DRSC23026] | calcium entry signal, replicate 1: 3.92e7; calcium entry signal, replicate 2: 3.55e7; resting calcium signal, replicate 1: 1.89e7; resting calcium signal, replicate 2: 1.70e7; activity call: inactive
heca [DRSC16964] | calcium entry signal, replicate 1: 3.24e7; calcium entry signal, replicate 2: 3.79e7; resting calcium signal, replicate 1: 1.87e7; resting calcium signal, replicate 2: 2.21e7; activity call: inactive
